# Data as given in PubChem BioAssay AID743121 (NCATS, 2013).
# Assay: 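Genes whose silencing strengthens cell killing by camptothecin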 (primary screen)
# Cells: MDA-MB-231 cells, a human breast cancer line
# Reagents: single siRNA against human genes, 20 nM siRNA (0.8 pmol per well)
# Timing: 120 h (drug added 48 h after transfection, read 72 h later)
# Conditions: camptothecin 20 nM (about EC30) for 72 h; vehicle 0.1% DMSO in parallel plates
# Measured: 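CellTiter-Glo ATP signal, scaled to control siRNA as percent viability; sensitisation given as log2 of untreated divided by camptothecin-treated viability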
# Direction: log2 vehicle/camptothecin viability: higher = stronger sensitisation to camptothecin; viability with camptothecin and viability without drug: higher = more viable cells
# Call rule: 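Each gene scored by redundant siRNA activity (RSA) over its individual siRNA ratios; a gene is called active at p < 0.001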
# Shown is one part, drawn at random, of about 26,000 reagents tested. 167 of them (0.63%) were called active. 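Calls are per gene from RSA p-values that are not deposited; an individual active-marked siRNA can sensitise only weakly.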 Reagents against one gene are numbered here.
gene,reagent no.,log2 vehicle/camptothecin viability,viability with camptothecin (% of control),viability without drug (% of control),Call
TM2D1,1,-0.33,120,95.5,inactive
TM2D1,2,-0.108,32,29.7,inactive
TM2D1,3,0.102,82.9,88.9,inactive
TM2D1,4,-0.456,88.7,64.6,inactive
NR6A1,1,0.468,76.9,106,inactive
NR6A1,2,0.2,115,132,inactive
NR6A1,3,-0.00883,95.3,94.7,inactive
NR6A1,4,-0.0797,78.9,74.6,inactive
SOCS2,1,-0.411,72.9,54.8,inactive
SOCS2,2,-0.352,113,88.7,inactive
SOCS2,3,-0.135,97.3,88.6,inactive
SOCS2,4,-0.182,54.4,47.9,inactive
NEDD8,1,0.377,91.2,118,inactive
NEDD8,2,0.0238,90.2,91.7,inactive
NEDD8,3,0.489,42.7,60,inactive
AGT,1,-0.186,90.9,80,inactive
AGT,2,-0.197,163,142,inactive
AGT,3,-0.567,45,30.4,inactive
AGT,4,0.265,60.4,72.5,inactive
IARS1,1,-0.171,98.1,87.1,inactive
IARS1,2,-0.331,76.9,61.1,inactive
IARS1,3,-0.277,98.5,81.3,inactive
GABRG3,1,-0.0296,96.6,94.6,inactive
GABRG3,2,-0.0628,118,113,inactive
GABRG3,3,-0.549,78.2,53.4,inactive
GABRG3,4,-0.13,84.4,77.1,inactive
SPC24,1,-0.87,69.1,37.8,inactive
SPC24,2,-0.507,91.6,64.4,inactive
SPC24,3,-0.352,83.5,65.5,inactive
SPC24,4,0.337,58.4,73.7,inactive
RB1,1,0.447,64.3,87.7,inactive
RB1,2,-0.0343,92.9,90.7,inactive
RB1,3,0.0562,101,105,inactive
RB1,4,-0.221,107,92,inactive
RAP1B,1,-0.124,95.3,87.5,inactive
RAP1B,2,0.266,70.6,84.9,inactive
RAP1B,3,-0.31,114,92,inactive
RAP1B,4,0.462,64.4,88.7,inactive
OR6C3,1,-0.354,75.3,59,inactive
OR6C3,2,-0.0441,97.2,94.3,inactive
OR6C3,3,-0.321,77.7,62.2,inactive
OR6C3,4,0.766,31.5,53.6,inactive
STAT3,1,-0.237,98.9,83.9,inactive
STAT3,2,-0.00388,61.7,61.5,inactive
STAT3,3,-0.316,106,85.5,inactive
STAT3,4,-0.261,101,84.3,inactive
TNFRSF11A,1,1.94,18.8,72.3,inactive
TNFRSF11A,2,-0.444,65.9,48.4,inactive
TNFRSF11A,3,-0.299,55.1,44.8,inactive
SH3KBP1,1,-0.0217,55.5,54.6,inactive
SH3KBP1,2,0.125,99.6,109,inactive
SH3KBP1,3,-0.0446,130,126,inactive
SH3KBP1,4,0.143,104,115,inactive
REM1,1,-0.107,107,99.1,inactive
REM1,2,0.0818,102,108,inactive
REM1,3,-0.463,72.9,52.9,inactive
REM1,4,-0.367,74.7,57.9,inactive
HAND2,1,-0.773,18.6,10.9,inactive
HAND2,2,-0.175,109,96.5,inactive
HAND2,3,-0.497,105,74.5,inactive
HAND2,4,0.604,44.2,67.1,inactive
TSSK3,1,-0.127,86.8,79.5,inactive
TSSK3,2,-0.238,88.4,75,inactive
TSSK3,3,0.27,44.7,53.9,inactive
TSSK3,4,-0.193,80.1,70,inactive
TMPRSS9,1,0.0641,79,82.6,inactive
TMPRSS9,2,-0.0656,78.2,74.7,inactive
TMPRSS9,3,-0.241,76.9,65,inactive
TMPRSS9,4,0.0686,39.2,41.1,inactive

Targets above whose target name begins with H or h (4):
gene,reagent no.,log2 vehicle/camptothecin viability,viability with camptothecin (% of control),viability without drug (% of control),Call
HAND2,1,-0.773,18.6,10.9,inactive
HAND2,2,-0.175,109,96.5,inactive
HAND2,3,-0.497,105,74.5,inactive
HAND2,4,0.604,44.2,67.1,inactive
